This note sets out measurements from patent publication US20080221144A1, “Controlled Release Formulations” (Innovative Drug Delivery Systems, Inc., priority 2004, published 2008).

This series can be described thus: clinical. Particulars: both, human, in vivo, 10 mg; for AUC: Morphine AUC, morphine in plasma, single dose, healthy volunteers, naltrexone block, formulation per label.

Broadly, the Cmax is the highest concentration seen after dosing. By Tmax is commonly meant the time at which the peak concentration occurs. In general, AUC refers to concentration integrated over time. A low value points to low exposure. Consider `CN1CC[C@]23c4c5ccc(O)c4O[C@H]2[C@@H](O)C=C[C@H]3[C@H]1C5.O=S(=O)(O)O` [10 mg IV + IN Placebo, morphine sulphate], for which the Cmax is 70 ± 20 ng/mL and the time of peak concentration (Tmax) amounted to 30 min. Also, for the setting “Mean ± SD (first AUC row)”, the AUC is 70 ± 23 ng·h/mL. The same compound came in with an AUC (Mean ± SD) of 75 ± 22 ng·h/mL.
